Measured values: US11414653
Construct, isoform or probe ends are uncertain for at least one entry. No signal at the amounts used counts as a negative.

Tested on: AtfA (Atf1 homolog) (Aspergillus niger)
Assay: EMSA
Details: LightShift EMSA, 20 min room temperature, purified recombinant protein, label: 3' biotin

Row | Sequence | binding result (6% gel 0.5x TBE) | binding result (printed strands not perfectly complementary, variant of EMSA Atf1 fungi site (ecm33 promoter))
1 | CCGTCGTAGCCCCTGAGCAGGGATAGTCAGGACTTACTGAAAGACCG / CGGTCTTTCAGTAAGTCCTGAC [EMSA Atf1 fungi site (ecm33 promoter)] | binds | 
2 | GTCAGGACTTACAGTAAAGACCG (double strand) [EMSA Atf1 yeast site] | binds | 
3 | GTCAGGACCCGCGCGCAGACCG / CGGTGTGCGCGCGGGTCCTGAC [EMSA mutated site] |  | no binding
